# No signal at the amounts used counts as a negative. At least one verdict was read from the data and is not stated in words by the source. For at least one entry, the source does not settle the construct or the ends of the probe.
# Tested on: CaHSF8-GST
# Assay: EMSA
# Settings: EMSA: 20 uL; 5x binding buffer printed as 1 M Tris-HCl pH 7.5, 5 M NaCl, 1 M KCl, 1 M MgCl2, 0.5 M EDTA pH 8.0, 10 mg/mL BSA (apparently stock concentrations); recombinant protein; protein details: GST (pDEST-15); label: Cy5
row,Sequence,binding result
1,AATGTTTTAAAAAAAATTAC (double strand) [M CaR1A-6 HSE probe],no binding
2,AATGTTTTTTCTAGAATTAC (double strand) [WT CaR1A-6 HSE probe],binds
3,AATTCTAGAAAAAATTCTAGAAAAAATTCTAGAAAA (double strand) [3x HSE probe],binds
4,ATTACTAAAAAAAATTTATG (double strand) [M CaR1A HSE probe],no binding
5,ATTACTTTCTAAGATTTATG (double strand) [WT CaR1A HSE probe],binds
6,CAAAGTAAAAAAAAAGAAAT (double strand) [M CaR1B12 HSE probe],no binding
7,CAAAGTTTCTAGAAAGAAAT (double strand) [WT CaR1B12 HSE probe],binds
8,CAATCCGAAAAAAAAAGTGA (double strand) [M CaR1B23 HSE probe],no binding
9,CAATCCGTTCTAGAAAGTGA (double strand) [WT CaR1B23 HSE probe],binds
10,CGTCATAAAAAAAAGTAGAT (double strand) [M CaR1B11 HSE probe],no binding
11,CGTCATTTCTAGAAGTAGAT (double strand) [WT CaR1B11 HSE probe],binds
12,GACCTAAAAAAAAAATCACT (double strand) [M CaR1B16 HSE probe],no binding
13,GACCTTTCTAGAAAATCACT (double strand) [WT CaR1B16 HSE probe],binds

# Molecular target: CaKAN3-GST (UniProt A0A2G2Z1N1)
# Assay: EMSA
# Settings: EMSA: 20 uL; 5x binding buffer printed as 1 M Tris-HCl pH 7.5, 5 M NaCl, 1 M KCl, 1 M MgCl2, 0.5 M EDTA pH 8.0, 10 mg/mL BSA (apparently stock concentrations); recombinant protein; protein details: GST (pDEST-15); label: Cy5
row,Sequence,binding result
1,CGGGCTAGAAAAAAACCGTC (double strand) [M CaR1B11 AACAA probe],no binding
2,CGGGCTAGAACAAAACCGTC (double strand) [WT CaR1B11 AACAA probe],binds
3,CTCTTTGAAAAAAGAAGGGA (double strand) [M CaR1B23 AACAA probe],no binding
4,CTCTTTGAAACAAGAAGGGA (double strand) [WT CaR1B23 AACAA probe],binds
5,CTTTTTGGAAAAACTCCAGT (double strand) [M CaR1A-6 AACAA probe],no binding
6,CTTTTTGGAACAACTCCAGT (double strand) [WT CaR1A-6 AACAA probe],binds
7,GAAAGAAATAAAAAGAGTTA (double strand) [M CaR1B12 AACAA probe],no binding
8,GAAAGAAATAACAAGAGTTA (double strand) [WT CaR1B12 AACAA probe],binds
9,TGAAAAAAATAAAAAGATCC (double strand) [M CaR1B16 AACAA probe],no binding
10,TGAAAACAATAACAAGATCC (double strand) [WT CaR1B16 AACAA probe],binds
11,TGCGCTCCCTAAAAAAGGAG (double strand) [M CaR1A AACAA probe],no binding
12,TGCGCTCCCTAACAAAGGAG (double strand) [WT CaR1A AACAA probe],binds

# From article PMC10368638
